Test results published in patent US7312188B2 (priority 2003, dated 2007).
For part of these data: One purity is given for all peptides; the source may state it once.

Experiments:
[1] = general procedure: Fmoc solid-phase peptide synthesis; Wang resin; 2-chlorotrityl chloride resin (Clt resin); DIPCDI/DMAP (loading of Wang resin); details: whole synthesis; for final HPLC purity: analytical HPLC
[2] = peptide synthesis; details: coupling step
[3] = general procedure: Fmoc solid-phase peptide synthesis; Fmoc-NH-C6H4-CO-Clt resin; DIPCDI/DMAP (loading of Wang resin); details: whole synthesis

Substance	isolated yield [1]	final HPLC purity [1]	other results
H-Glu-Val-Lys-Pns-Asp-Ala-Glu-Phe-OH (EAEF; N-terminal Glu-Val-Leu-Pns; printed: Glu-Ala-Glu-Phe-)	88%	>98%	
H-Glu-Val-Leu-Pns-OH (GAEF; N-terminal Glu-Val-Leu-Pns; printed: Gly-Ala-Glu-Phe-)	39%	>98%	
H-Glu-Val-Leu-Pns-Asp-Ala-Glu-Gly-OH (DAEG; N-terminal Glu-Val-Leu-Pns; printed: Asp-Ala-Glu-Gly-)	35%	>98%	
H-Glu-Val-Gly-Pns-Asp-Ala-Glu-Phe-OH	48%	>98%	
H-Glu-Val-Asn-Nst-Asp-Ala-Glu-Phe-OH	52%	>98%	
H-Glu-Val-Leu-Pns-Asp-Ala-Val-Phe-OH	27%	>98%	
H-Glu-Val-Leu-Apns-Gln-Ala-Glu-Phe-OH (DAVF; N-terminal Glu-Val-Leu-Pns; printed: Asp-Ala-Val-Phe-)	63%	>98%	
H-Glu-Val-Leu-Pns-Asp-Gly-Glu-Phe-OH (DGEF; N-terminal Glu-Val-Leu-Pns; printed: Asp-Gly-Glu-Phe-)	44%	>98%	
H-Leu-Pns-Asp-Ala-Glu-Phe-OH	49%	>98%	
H-Glu-Phe-Leu-Pns-Asp-Ala-Glu-Phe-OH (DAEF; N-terminal Glu-Val-Leu-Apns; printed: Asp-Ala-Glu-Phe-)	58%	>98%	
H-Glu-Leu-Leu-Pns-Asp-Ala-Glu-Phe-OH	58%	>98%	
H-Glu-Val-Leu-Pns-Gly-Ala-Glu-Phe-OH	63%	>98%	
β-ODap-Val-Leu-Pns-Asp-Ala-Gly-Phe-OH		>98%	isolated yield ([1]; run 1): 18%; isolated yield ([1]; run 2): 19%
H-Glu-Val-Leu-Pns-Glu-Ala-Glu-Phe-OH	36%	>98%	
H-Glu-Val-Met-Pns-Asp-Ala-Glu-Phe-OH (AAEF; N-terminal Glu-Val-Leu-Pns; printed: Ala-Ala-Glu-Phe-)	51%	>98%	
H-Glu-Val-Leu-Pns-Ala-Glu-Glu-Phe-OH	58%	>98%	
H-homoGlu-Val-Leu-Pns-Asp-Ala-Gly-Phe-OH		>98%	isolated yield ([1]; run 1): 22%; isolated yield ([1]; run 2): 37%
H-Glu-Val-Leu-Apns-Ala-Ala-Glu-Phe-OH (AFEF; N-terminal Glu-Val-Leu-Pns; printed: Ala-Phe-Glu-Phe-)	36%	>98%	
H-Glu-Val-Leu-Pns-Asp-Ala-Gln-Phe-OH	77%	>98%	
H-Glu-Val-Leu-Apns-Asp-Ala-Glu-Phe-OH	41%	>98%	
H-Glu-Val-Leu-Pns-Asp-Ala-Phe-Phe-OH	49%	>98%	
H-Pns-Asp-Ala-Glu-Phe-OH (DAEG; N-terminal Glu-Val-Leu-Pns; printed: Asp-Ala-Glu-Gly-)	49%	>98%	
H-Glu-Val-Leu-Apns-Asn-Ala-Glu-Phe-OH (AEEF; N-terminal Glu-Val-Leu-Pns; printed: Ala-Glu-Glu-Phe-)	63%	>98%	

Substance	isolated yield [1]	final HPLC purity [1]	other results
H-Glu-Val-Leu-Pns-Ala-Phe-Glu-Phe-OH	31%	>98%	
H-Glu-Val-Gln-Pns-Asp-Ala-Glu-Phe-OH	63%	>98%	
H-Glu-Val-Glu-Pns-Asp-Ala-Glu-Phe-OH	48%	>98%	
H-Glu-Ile-Leu-Pns-Asp-Ala-Glu-Phe-OH	68%	>98%	
H-Glu-Val-Leu-Pns-Asn-Ala-Glu-Phe-OH	44%	>98%	
H-Gln-Val-Leu-Pns-Asp-Ala-Gly-Phe-OH		>98%	isolated yield ([1]; run 1): 47%; isolated yield ([1]; run 2): 68%
H-Glu-Val-Leu-Pns-Ala-Val-Glu-Phe-OH (DAFF; N-terminal Glu-Val-Leu-Pns; printed: Asp-Ala-Phe-Phe-)	27%	>98%	
H-Glu-Val-Leu-Pns-Asp-Ala-Glu-OH	37%	>98%	
H-Glu-Val-Leu-Pns-Ala-Leu-Glu-Phe-OH	42%	>98%	
H-Glu-Val-Leu-Pns-Dmt-Ala-Glu-Phe-OH	21%	>98%	
H-Glu-Val-Leu-Pns-NH-Bzl		>98%	step yield [2]: 23%; isolated yield [3]: 56%
H-Glu-Val-Leu-Pns-Asp-OH	40%	>98%	
H-Gly-Val-Leu-Pns-Asp-Ala-Glu-Phe-OH	78%	>98%	
H-Val-Leu-Pns-Asp-Ala-Glu-Phe-OH (DGEF; N-terminal Glu-Val-Leu-Pns; printed: Asp-Gly-Glu-Phe-)	61%	>98%	
H-Glu-Val-Leu-Pns-Asp-Ala-Glu-Phe-OH	39%	>98%	
H-Glu-Val-Asp-Pns-Asp-Ala-Glu-Phe-OH	64%	>98%	
H-Glu-Val-Asn-Pns-Asp-Ala-Glu-Phe-OH	73%	>98%	
H-Glu-Val-Leu-Apns-Glu-Ala-Glu-Phe-OH (DAQF; N-terminal Glu-Val-Leu-Pns; printed: Asp-Ala-Gln-Phe-)	59%	>98%	
glt-Val-Leu-Pns-Asp-Ala-Gly-Phe-OH	22%	>98%	
H-Glu-Met-Leu-Pns-Asp-Ala-Glu-Phe-OH	60%	>98%	
H-Glu-Val-Leu-Pns-Asp-Ala-Gly-Phe-OH	40%	>98%	
H-Glu-Val-Leu-Apns-Dmt-Ala-Glu-Phe-OH (DALF; N-terminal Glu-Val-Leu-Pns; printed: Asp-Ala-Leu-Phe-)	28%	>98%	
H-Glu-Val-Leu-Pns-Ala-Ala-Glu-Phe-OH	43%	>98%	
